# Reference: paper PMC7819943, “Rice protein-binding microarrays: a tool to detect cis-acting elements near promoter regions in rice”
# Protein sequences, listed by entry. Tags and fused reporters are not part of them.
# UniProt Q0JBA9, entry or part of it: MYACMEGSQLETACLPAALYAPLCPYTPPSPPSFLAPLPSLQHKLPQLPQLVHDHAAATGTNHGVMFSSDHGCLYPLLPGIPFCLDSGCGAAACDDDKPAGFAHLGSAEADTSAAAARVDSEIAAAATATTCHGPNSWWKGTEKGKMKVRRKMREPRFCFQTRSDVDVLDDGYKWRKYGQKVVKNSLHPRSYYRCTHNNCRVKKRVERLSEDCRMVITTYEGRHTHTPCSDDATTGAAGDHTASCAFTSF
# Some of the results follow.
# Target: OsWRKY34 (Oryza sativa, UniProt Q0JBA9 1-250)
# Assay: protein-binding microarray (RPBM); PBS, 2% BSA, 51.3 ng/ul salmon testes DNA, 50 uM zinc acetate, 200 nM TF, 25 C, 1 h; high values mean tight binding
# Details: protein: recombinant; tags: N-terminal polyhistidine and DsRed monomer fusion (pET32a); label: CyDye5-dUTP incorporated in the synthesized complementary strand; 3' TTTTT single-stranded linker to array surface; dsDNA, one strand shown
# In short: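 An Axon 4000B scanner gave the binding signal as per-feature fluorescence intensity in arbitrary units. This followed washing of a custom Agilent array that had been incubated for 1 h at 25 °C with 200 nM protein in PBS, 2% BSA, salmon testes DNA and 50 µM zinc acetate. The proteins were transcription factors fused at the N-terminus to polyhistidine and DsRed, expressed in E. coli BL21-CodonPlus and purified on Ni–NTA.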
row,Sequence,binding signal
1,CGTGTACGCGTTGTTGGTGCCGGAGGCGTTCTTCCGCGACCGGAGTCACCTAGTGCAG,8440 fluorescence intensity (a.u.)
2,ATTCCTAGCTACTCCTACTACCACTGACTTGTTGGTTCCACGGAGTCACCTAGTGCAG,8030 fluorescence intensity (a.u.)
3,ACCTTGCGAGCAACACATGTCCTCCTCGCTATTGTACTCCCGGAGTCACCTAGTGCAG,8090 fluorescence intensity (a.u.)
4,TATGCATGTAGCCACCTTGAATGCCTCTAATTTCATGTTTCGGAGTCACCTAGTGCAG,8510 fluorescence intensity (a.u.)
5,GGGGATTTCGAGTTGTGATGGGTTGAGGTTGATTAGATGCCGGAGTCACCTAGTGCAG,15800 fluorescence intensity (a.u.)
6,GTACATATCTCGTATTCTCATTATGTGGTTGTTTAAATCCCGGAGTCACCTAGTGCAG,8660 fluorescence intensity (a.u.)
7,TATATTTTTACTTTGGTCAAAGTTAGACTGTTTTATGTTTCGGAGTCACCTAGTGCAG,13400 fluorescence intensity (a.u.)
8,AACTAACCTTATAGATCGACACATCTCGTCCACGCTTAGTCGGAGTCACCTAGTGCAG,8470 fluorescence intensity (a.u.)
9,GCTGCAGCTGCCATCCACCCACAGAACCCACTTGCATTATCGGAGTCACCTAGTGCAG,9120 fluorescence intensity (a.u.)
10,TACCACCCCGAGCTGAGTCCTCTCGCCATCATCCTCCTATCGGAGTCACCTAGTGCAG,9700 fluorescence intensity (a.u.)
11,GCCACGTAGGACGGTCAATCCGGTCAAATGTGCTTTGGACCGGAGTCACCTAGTGCAG,9540 fluorescence intensity (a.u.)
12,CTACAGTGCGTACATCCTAACTATTAGGGCGTTATCTTTTCGGAGTCACCTAGTGCAG,9170 fluorescence intensity (a.u.)
13,TTCCAATCCTTGCCACGCCCACCGCAGACCAAAGCCGCGCCGGAGTCACCTAGTGCAG,8540 fluorescence intensity (a.u.)
14,AGGCCACCACCACTCACTCCTTCAACTTCAATGGCAGCTCCGGAGTCACCTAGTGCAG,8090 fluorescence intensity (a.u.)
15,TGGTGGTGAGGAGGAGGAGGAGGAGGGCGGGGTCGTCGTCCGGAGTCACCTAGTGCAG,16200 fluorescence intensity (a.u.)
16,GTTTAGTGTTTTAGTTGCCTTTATCAATGATATTGCGTGCCGGAGTCACCTAGTGCAG,8980 fluorescence intensity (a.u.)
17,GACACTAATTTAGGACGAATGCATTATACTGCTTCTCATACGGAGTCACCTAGTGCAG,9420 fluorescence intensity (a.u.)
18,TTGCATCAACTTCCTCCTTTTCTTTCTCGCTTTCGCTCTTCGGAGTCACCTAGTGCAG,9000 fluorescence intensity (a.u.)
19,ACCTGCTTACTAGTTACTACCCGTCCGCCTCGATCTTACCCGGAGTCACCTAGTGCAG,9330 fluorescence intensity (a.u.)
20,GGTGTGGTTGGTTCGATATTTAAGACCTTTTAATCCAAAGCGGAGTCACCTAGTGCAG,11400 fluorescence intensity (a.u.)
21,TGTTCTTATGTTCAACTCCCGGGACACTGTTCATCATACGCGGAGTCACCTAGTGCAG,8760 fluorescence intensity (a.u.)
22,TTACTTATCTCTCTAGTACTCCTACTACTGCTAGTGTGCTCGGAGTCACCTAGTGCAG,8030 fluorescence intensity (a.u.)
23,CTCCCTGCTTGTATGTCACTCTACACTTGATTTATCTTAACGGAGTCACCTAGTGCAG,8940 fluorescence intensity (a.u.)

# Look-ups from the list.
# Under binding signal, CGTGTACGCGTTGTTGGTGCCGGAGGCGTTCTTCCGCGACCGGAGTCACCTAGTGCAG shows 8440 fluorescence intensity (a.u.)
# Under binding signal, TTACTTATCTCTCTAGTACTCCTACTACTGCTAGTGTGCTCGGAGTCACCTAGTGCAG shows 8030 fluorescence intensity (a.u.)
